Reference: PubChem BioAssay AID248 (DTP/NCI, 2004)
The list does not hold the whole screen: it gathers tests that were run many times, whatever their T/C, doses with no T/C, and many T/C values between a quarter and a half above the control. Further doses and runs are listed elsewhere. T/C: endpoint of the treated group in % of that of the vehicle group. Some entries give survivors of the animals treated and no T/C: the source holds a T/C of zero for them, seemingly a mark for toxic or unscored doses. Some survivor counts are full or nearly so, which does not show that the dose was tolerated: the source hardly ever lists a survival T/C far under the control, and the zero likely stands for such cases as well. Counts of survivors are from the toxicity check (mostly the fifth day) where no day follows; animals may have died later. Schedule codes are those of the source, taken here to give the interval after Q, in days (D) or hours (H), and the number of doses after X. Some schedule codes hold Z or #, which are not explained here. Where survival is the endpoint, the PubChem record calls one and a half times the control and up active, and a quarter to a half above the control has no call in these data; cut-offs in other NCI protocols can differ.

System: L1210 leukemia ip in BDF1 mice, survival T/C
Test: NCI In Vivo Anticancer Drug Screen. Data for tumor model L1210 Leukemia (intraperitoneal) in B6D2F1 (BDF1) mice
Details: T/C endpoint: mean survival time, higher T/C = longer survival
[1] = dose: 400.0 mg/kg/injection, schedule: Q04DX003 (ip), vehicle: Klucel (hydroxypropylcellulose) (HPC)
[2] = dose: 300.0 mg/kg/injection, schedule: Q01DX001 (ip), vehicle: other
[3] = dose: 200.0 mg/kg/injection, schedule: Q01DX009 (ip), vehicle: Klucel (hydroxypropylcellulose) (HPC)
[4] = dose: 200.0 mg/kg/injection, schedule: Q04DX003 (ip), vehicle: saline with Tween-80
[5] = dose: 400.0 mg/kg/injection, schedule: Q04DX003 (ip), vehicle: saline with Tween-80
[6] = dose: 200.0 mg/kg/injection, schedule: Q04DX003 (ip), vehicle: saline
[7] = dose: 400.0 mg/kg/injection, schedule: Q04DX003 (ip), vehicle: saline

`OC1CCN2CCCc3cccc1c32` (stereo unspecified) was tested, and the survivor count (dose: 100.0 mg/kg/injection, schedule: Q04DX003 (ip), vehicle: other) was 3 of 6, the survivor count (dose: 200.0 mg/kg/injection, schedule: Q04DX003 (ip), vehicle: other) was 0 of 6 and the survivor count (dose: 400.0 mg/kg/injection, schedule: Q04DX003 (ip), vehicle: other) was 0 of 6.
For `Cc1cccnc1NC(=S)Nc1ccccc1Cl`, the survivor count (dose: 400.0 mg/kg/injection, schedule: Q04DX002 (ip), vehicle: gum acacia) was 3 of 3.
With `CC(CBr)C(=O)O` (stereo unspecified) the survivor count (dose: 400.0 mg/kg/injection, schedule: Q04DX002 (ip), vehicle: saline with Tween-80) was 3 of 3.
`C=C1C(=O)OC2CCCCC3OC3C12` (stereo unspecified) was tested, and the survivor count (dose: 200.0 mg/kg/injection, schedule: Q01DX001 (ip), vehicle: saline with Tween-80) was 0 of 3 and the survivor count (dose: 400.0 mg/kg/injection, schedule: Q01DX001 (ip), vehicle: saline with Tween-80) was 0 of 3.
For `COc1ccc(C(=O)C(C)CN2CCCCC2)cc1` (stereo unspecified), the survivor count (dose: 400.0 mg/kg/injection, schedule: Q01DX001 (ip), vehicle: saline) was 0 of 4.
For `O=C(O)c1cccc(Nc2ccccc2C(=O)O)c1`, the survivor count (dose: 400.0 mg/kg/injection, schedule: Q01DX001 (ip), vehicle: carboxymethylcellulose (CMC)) was 4 of 4.
For `Cc1nccc(=O)[nH]1`, the survivor count (dose: 400.0 mg/kg/injection, schedule: Q01DX009 (ip), vehicle: saline) was 1 of 6.
`COc1cc2c(c(OC)c1OC)-c1ccc(OC)c(=O)cc1[C@@H](NC=O)CC2` was tested, and the T/C (dose: 1.0 mg/kg/injection, schedule: Q01DX009 (ip), vehicle: Klucel (hydroxypropylcellulose) (HPC)) was 133 % of control, the T/C (dose: 1.5 mg/kg/injection, schedule: Q01DX015 (ip), vehicle: carboxymethylcellulose (CMC)) was 125 % of control and the survivor count (dose: 2.0 mg/kg/injection, schedule: Q01DX009 (ip), vehicle: Klucel (hydroxypropylcellulose) (HPC)) was 3 of 6. The survivor count (dose: 4.0 mg/kg/injection, schedule: Q01DX009 (ip), vehicle: Klucel (hydroxypropylcellulose) (HPC)) was 0 of 6, the survivor count (dose: 8.0 mg/kg/injection, schedule: Q01DX009 (ip), vehicle: Klucel (hydroxypropylcellulose) (HPC)) was 0 of 6 and the survivor count (dose: 50.0 mg/kg/injection, schedule: Q04DX003 (ip), vehicle: Klucel (hydroxypropylcellulose) (HPC)) was 2 of 6. The survivor count (dose: 100.0 mg/kg/injection, schedule: Q04DX003 (ip), vehicle: Klucel (hydroxypropylcellulose) (HPC)) was 0 of 6, the survivor count (dose: 200.0 mg/kg/injection, schedule: Q04DX003 (ip), vehicle: Klucel (hydroxypropylcellulose) (HPC)) was 0 of 6 and the survivor count [1] was 0 of 6.
`[Br][Sn]([Br])([CH]1CCCCC1)[CH]1CCCCC1` was tested, and the survivor count (dose: 37.5 mg/kg/injection, schedule: Q01DX001 (ip), vehicle: other) was 0 of 6, the survivor count (dose: 75.0 mg/kg/injection, schedule: Q01DX001 (ip), vehicle: other) was 0 of 6 and the survivor count (dose: 150.0 mg/kg/injection, schedule: Q01DX001 (ip), vehicle: other) was 0 of 6. The survivor count [2] was 0 of 6.
In the case of `O=C(Nc1ccc(C(=O)O)cc1)Nc1cccc(F)c1`, the survivor count [3] was 3 of 6 and the survivor count (dose: 400.0 mg/kg/injection, schedule: Q04DX002 (ip), vehicle: Klucel (hydroxypropylcellulose) (HPC)) was 0 of 3.
For `Cc1cc(N)c(C)c(C)c1O`, the survivor count [4] was 1 of 6 and the survivor count [5] was 0 of 6.
In the case of `Cc1cn(C)c2nccnc12`, the survivor count (dose: 200.0 mg/kg/injection, schedule: Q01DX009 (ip), vehicle: water) was 0 of 6 and the survivor count (dose: 400.0 mg/kg/injection, schedule: Q01DX009 (ip), vehicle: water) was 0 of 6.
With `C1CCC(N2CCOCC2)CC1` the survivor count (dose: 100.0 mg/kg/injection, schedule: Q04DX003 (ip), vehicle: saline with Tween-80) was 5 of 6, the survivor count [4] was 0 of 6 and the survivor count [5] was 0 of 6.
`O=C(Cc1cccc2ccccc12)N/N=C/c1cccc([N+](=O)[O-])c1` was tested, and the survivor count (dose: 400.0 mg/kg/injection, schedule: Q01DX009 (ip), vehicle: Klucel (hydroxypropylcellulose) (HPC)) was 5 of 6.
`O=C(O)COc1c(Br)cc(F)cc1Br` was tested, and the survivor count (dose: 100.0 mg/kg/injection, schedule: Q04DX002 (ip), vehicle: other) was 3 of 3.
With `CC(C)C1=CC23CCC4C(C)(C(=O)O)CCCC4(C)C2CC1C1(Cl)C(Cl)=C(Cl)C(Cl)(Cl)C31Cl` (stereo unspecified) the survivor count [2] was 3 of 6.
With `Cc1cc(CCN)c(C)c2c1sc1ccccc12` the survivor count (dose: 150.0 mg/kg/injection, schedule: Q01DX001 (ip), vehicle: saline) was 0 of 6 and the survivor count (dose: 300.0 mg/kg/injection, schedule: Q01DX001 (ip), vehicle: saline) was 0 of 6.
`Cc1ccc[n+](CC(=O)c2ccccc2)c1` was tested, and the survivor count (dose: 1.56 mg/kg/injection, schedule: Q01DX009 (ip), vehicle: saline) was 2 of 6, the survivor count (dose: 2.3 mg/kg/injection, schedule: Q01DX009 (ip), vehicle: saline) was 4 of 6 and the survivor count (dose: 3.12 mg/kg/injection, schedule: Q04DX003 (ip), vehicle: saline) was 5 of 6. For the same compound, the survivor count (dose: 3.5 mg/kg/injection, schedule: Q01DX009 (ip), vehicle: saline) was 0 of 6, the survivor count (dose: 5.2 mg/kg/injection, schedule: Q01DX009 (ip), vehicle: saline) was 0 of 6 and the survivor count (dose: 6.25 mg/kg/injection, schedule: Q04DX003 (ip), vehicle: saline) was 0 of 6. For the same compound, the survivor count (dose: 12.5 mg/kg/injection, schedule: Q04DX003 (ip), vehicle: saline) was 0 of 6, the survivor count (dose: 25.0 mg/kg/injection, schedule: Q04DX003 (ip), vehicle: saline) was 1 of 6 and the survivor count (dose: 50.0 mg/kg/injection, schedule: Q04DX003 (ip), vehicle: saline) was 0 of 6. The survivor count (dose: 100.0 mg/kg/injection, schedule: Q04DX003 (ip), vehicle: saline) was 0 of 6, the survivor count [6] was 0 of 6 and the survivor count [7] was 1 of 6.
With `Clc1ccc(CSc2ncc(Br)c(Nc3cc(Cl)ccc3Cl)n2)cc1` the survivor count (dose: 25.0 mg/kg/injection, schedule: Q01DX Z (ip), vehicle: methylcellulose (MC)) was 5 of 6 and the survivor count (dose: 100.0 mg/kg/injection, schedule: Q01DX Z (ip), vehicle: methylcellulose (MC)) was 6 of 6.
With `CC(=O)C(C)CCc1ccccn1` (stereo unspecified) the survivor count (dose: 500.0 mg/kg/injection, schedule: Q01DX Z (ip), vehicle: methylcellulose (MC)) was 0 of 6.
`C1CCN[N-]C1.C1CCN[N-]C1.[Cl][Pt+2]([Cl])([Cl])[Cl]` was tested, and the survivor count (dose: 100.0 mg/kg/injection, schedule: Q04DX003 (ip), vehicle: water) was 3 of 6, the survivor count (dose: 200.0 mg/kg/injection, schedule: Q04DX003 (ip), vehicle: water) was 3 of 6 and the survivor count (dose: 400.0 mg/kg/injection, schedule: Q04DX003 (ip), vehicle: water) was 0 of 6.
`Cc1ccc(S)c(C)c1` was tested, and the survivor count [1] was 0 of 6.
`O=S(=O)(O)c1ccc(/C2=c3\cc/c([n-]3)=C(\c3ccc(S(=O)(=O)O)cc3)c3ccc([n-]3)/C(c3ccc(S(=O)(=O)O)cc3)=c3/cc/c([n-]3)=C(\c3ccc(S(=O)(=O)O)cc3)c3ccc2[n-]3)cc1.[Co]` was tested, and the survivor count (dose: 200.0 mg/kg/injection, schedule: Q01DX009 (ip), vehicle: saline) was 6 of 6.
`C/C(=N\[N+](C)(C)C)c1ccc(Br)cc1` was tested, and the survivor count (dose: 150.0 mg/kg/injection, schedule: Q01DX009 (ip), vehicle: saline) was 0 of 6, the survivor count [6] was 1 of 6 and the survivor count (dose: 225.0 mg/kg/injection, schedule: Q01DX009 (ip), vehicle: saline) was 0 of 6. The survivor count (dose: 335.0 mg/kg/injection, schedule: Q01DX009 (ip), vehicle: saline) was 0 of 6 and the survivor count [7] was 0 of 6.
For `Cc1cnc(-n2nc(-c3ccccc3)c3c2-c2ccccc2C3)nc1-c1ccccc1O`, the survivor count (dose: 25.0 mg/kg/injection, schedule: Q01DX009 (ip), vehicle: Klucel (hydroxypropylcellulose) (HPC)) was 3 of 3, the survivor count (dose: 50.0 mg/kg/injection, schedule: Q01DX009 (ip), vehicle: Klucel (hydroxypropylcellulose) (HPC)) was 3 of 3 and the survivor count (dose: 100.0 mg/kg/injection, schedule: Q01DX009 (ip), vehicle: Klucel (hydroxypropylcellulose) (HPC)) was 3 of 3. The survivor count [3] was 3 of 3.
